Results are given in words; binding and its absence hold for the method and conditions named. Some results given as binding are weak or reduced against the parent protein; the word gives no strength.
T1: Type II peptide #66 (yeast two-hybrid bait) (S. cerevisiae)
T1 sequence (peptide): SSSSTPPTLPPRRIE

Chains of the proteins cited; added tags and fusions are not shown. Residues count along the entry.
UniProt P39743, residues 421-482: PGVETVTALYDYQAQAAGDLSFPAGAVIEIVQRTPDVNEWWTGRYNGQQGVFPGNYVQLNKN

T2: non-canonical Type I peptide #268 (yeast two-hybrid bait) (S. cerevisiae)
T2 sequence (peptide): ITHRLRISIPGITGR

B1: C. albicans Rvs167 SH3 domain (yeast two-hybrid prey) (domain or fragment, UniProt Q59LF3 382-440)
chain: SGLPTCTALYDYTAQAQGDLTFPAGAVIEIIQRTEDANGWWTGKYNGQTGVFPGNYVQL
B2: S. pombe Rvs167 (Hob1) SH3 domain (yeast two-hybrid prey) (domain or fragment, UniProt O74352 407-466)
chain: PAAEHVVALYDYAAQAAGDLSFHAGDRIEVVSRTDNQNEWWIGRLNGAQGQFPGNYVQLE

Key:
[1] = target: T1, Type II peptide #66 (yeast two-hybrid bait) (S. cerevisiae); experiment: two-hybrid; peptides as bait in pGBKT7, SH3 domains as prey in pYR035 (modified pGADT7); S. cerevisiae Gold strain; ~10^4 cells spotted on His-, His- with 2.5, 5 or 10 mM 3AT, or Ade- plates; three days at 28°C
[2] = target: T2, non-canonical Type I peptide #268 (yeast two-hybrid bait) (S. cerevisiae); experiment: as above

| Molecule | binding [1] | binding [2] |
| --- | --- | --- |
| S. cerevisiae Rvs167 SH3 domain (yeast two-hybrid prey) (from UniProt P39743 421-482) (domain or fragment) | binds | no binding |
| B1 | binds | no binding |
| B2 | binds | no binding |

From publication PMC4466140, “Evolution of the SH3 Domain Specificity Landscape in Yeasts” (PLoS ONE, 2015)
